Source: PMC5680368
These are yes or no findings as the source states them, for the method shown. Binding seen in cells or lysates may run through a third protein. These calls come from enrichment with a bait or labelling near it, and not all partners need be listed. For some assays here: No binding means not detected with the bait. Where a sequence is shown, tags or fusion partners need not be part of it.

Amino acid sequences for entries named in this document (tags omitted).
UniProt Q52LJ0: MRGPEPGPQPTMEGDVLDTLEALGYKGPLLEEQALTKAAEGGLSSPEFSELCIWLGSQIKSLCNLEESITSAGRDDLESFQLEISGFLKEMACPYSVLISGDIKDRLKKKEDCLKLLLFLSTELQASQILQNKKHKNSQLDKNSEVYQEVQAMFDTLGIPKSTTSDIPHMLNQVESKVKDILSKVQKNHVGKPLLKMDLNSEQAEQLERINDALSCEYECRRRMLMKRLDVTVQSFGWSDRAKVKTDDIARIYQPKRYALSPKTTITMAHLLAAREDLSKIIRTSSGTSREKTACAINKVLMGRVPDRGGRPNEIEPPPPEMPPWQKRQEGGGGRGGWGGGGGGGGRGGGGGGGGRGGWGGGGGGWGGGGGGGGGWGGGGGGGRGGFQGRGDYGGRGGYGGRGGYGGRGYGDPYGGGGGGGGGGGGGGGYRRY
UniProt Q02880: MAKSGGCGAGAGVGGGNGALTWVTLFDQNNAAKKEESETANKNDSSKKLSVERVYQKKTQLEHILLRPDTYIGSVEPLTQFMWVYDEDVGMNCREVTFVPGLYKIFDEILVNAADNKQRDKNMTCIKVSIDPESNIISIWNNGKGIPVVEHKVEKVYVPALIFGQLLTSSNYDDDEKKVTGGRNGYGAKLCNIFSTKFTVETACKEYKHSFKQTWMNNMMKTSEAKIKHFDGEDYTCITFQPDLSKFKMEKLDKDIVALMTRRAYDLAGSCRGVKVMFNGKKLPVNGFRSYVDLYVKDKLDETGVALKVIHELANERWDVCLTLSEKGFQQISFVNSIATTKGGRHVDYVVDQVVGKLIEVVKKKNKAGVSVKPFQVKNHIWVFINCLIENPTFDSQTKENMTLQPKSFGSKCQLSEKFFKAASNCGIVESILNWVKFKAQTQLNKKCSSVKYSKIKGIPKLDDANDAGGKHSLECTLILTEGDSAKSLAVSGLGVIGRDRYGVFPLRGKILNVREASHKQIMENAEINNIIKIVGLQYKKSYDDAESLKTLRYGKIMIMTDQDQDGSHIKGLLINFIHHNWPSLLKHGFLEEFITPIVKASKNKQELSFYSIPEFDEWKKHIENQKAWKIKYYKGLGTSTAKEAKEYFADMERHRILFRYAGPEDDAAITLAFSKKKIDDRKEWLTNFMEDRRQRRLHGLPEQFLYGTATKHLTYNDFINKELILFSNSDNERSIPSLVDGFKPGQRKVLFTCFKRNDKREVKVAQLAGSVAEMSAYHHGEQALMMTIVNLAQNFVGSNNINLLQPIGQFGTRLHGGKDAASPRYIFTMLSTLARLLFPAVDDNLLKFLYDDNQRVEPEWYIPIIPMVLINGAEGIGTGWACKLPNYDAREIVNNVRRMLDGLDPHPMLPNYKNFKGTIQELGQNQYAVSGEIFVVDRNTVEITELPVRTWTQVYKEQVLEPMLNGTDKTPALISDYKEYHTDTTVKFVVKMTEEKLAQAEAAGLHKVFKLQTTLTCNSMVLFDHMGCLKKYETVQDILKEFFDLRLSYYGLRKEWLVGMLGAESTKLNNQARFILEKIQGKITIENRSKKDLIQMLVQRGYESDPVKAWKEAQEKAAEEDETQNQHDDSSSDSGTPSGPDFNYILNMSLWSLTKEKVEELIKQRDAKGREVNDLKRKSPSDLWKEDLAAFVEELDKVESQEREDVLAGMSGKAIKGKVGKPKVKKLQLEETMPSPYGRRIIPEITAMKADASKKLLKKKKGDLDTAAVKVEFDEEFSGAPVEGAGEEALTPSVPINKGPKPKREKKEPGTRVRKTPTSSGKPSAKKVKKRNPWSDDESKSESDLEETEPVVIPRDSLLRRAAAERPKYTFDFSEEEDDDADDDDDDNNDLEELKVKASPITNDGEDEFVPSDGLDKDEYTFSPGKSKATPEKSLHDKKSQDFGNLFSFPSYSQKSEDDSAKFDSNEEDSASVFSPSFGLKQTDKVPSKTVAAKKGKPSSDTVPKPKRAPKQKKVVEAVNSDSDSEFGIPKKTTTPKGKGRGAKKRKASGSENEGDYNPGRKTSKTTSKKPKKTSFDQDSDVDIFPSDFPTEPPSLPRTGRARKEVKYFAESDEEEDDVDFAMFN
UniProt Q15532: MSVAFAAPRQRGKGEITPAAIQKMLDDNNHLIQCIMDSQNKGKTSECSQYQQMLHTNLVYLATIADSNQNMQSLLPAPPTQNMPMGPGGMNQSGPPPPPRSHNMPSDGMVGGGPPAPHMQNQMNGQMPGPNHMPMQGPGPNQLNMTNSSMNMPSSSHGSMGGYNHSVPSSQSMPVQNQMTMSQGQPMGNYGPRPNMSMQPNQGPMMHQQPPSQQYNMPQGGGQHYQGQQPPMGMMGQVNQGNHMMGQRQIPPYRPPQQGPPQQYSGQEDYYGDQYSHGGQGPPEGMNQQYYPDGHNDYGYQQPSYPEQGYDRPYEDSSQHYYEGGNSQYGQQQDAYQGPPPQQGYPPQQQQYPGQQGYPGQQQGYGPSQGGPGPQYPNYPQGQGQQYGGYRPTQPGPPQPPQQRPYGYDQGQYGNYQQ
UniProt Q16637: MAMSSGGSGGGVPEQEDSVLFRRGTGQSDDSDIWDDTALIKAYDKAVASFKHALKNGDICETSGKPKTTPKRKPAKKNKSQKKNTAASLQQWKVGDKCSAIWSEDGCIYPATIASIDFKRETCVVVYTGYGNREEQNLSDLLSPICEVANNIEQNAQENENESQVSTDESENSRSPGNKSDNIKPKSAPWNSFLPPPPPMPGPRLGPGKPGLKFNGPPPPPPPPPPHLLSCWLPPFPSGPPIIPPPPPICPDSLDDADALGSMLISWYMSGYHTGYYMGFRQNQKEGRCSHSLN

T1: human OSTF1 tagged at the N-terminus with a V5-epitope tag (human) (UniProt Q92882)
T1 sequence: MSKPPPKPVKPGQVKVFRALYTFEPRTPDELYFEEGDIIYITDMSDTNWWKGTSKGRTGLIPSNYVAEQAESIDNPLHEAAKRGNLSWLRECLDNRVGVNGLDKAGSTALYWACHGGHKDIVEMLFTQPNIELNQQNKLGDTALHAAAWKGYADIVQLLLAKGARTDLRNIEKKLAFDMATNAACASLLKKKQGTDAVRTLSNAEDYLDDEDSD


Target: T1, human OSTF1 tagged at the N-terminus with a V5-epitope tag (human)
Experiment: affinity purification with mass spectrometry; HEK293 cells transiently transfected in triplicate with empty vector or V5-OSTF1; lysed after 48 h in 50 mM Tris pH 7.5, 1% Triton-X100, 150 mM NaCl; automated IP with anti-V5 magnetic agarose; co-immunoprecipitating proteins identified by LC-MS/MS

Row | binding | Molecule
1 | binds | Family with sequence similarity 98 member B (from UniProt Q52LJ0 1-433)
2 | binds | Topoisomerase (DNA) II beta (from UniProt Q02880 1-1626)
3 | binds | SS18, nBAF chromatin remodelling complex subunit (from UniProt Q15532 1-418)

Row | Molecule | binding
4 | Survival of Motor Neuron 1 (from UniProt Q16637 1-294) | no binding

Target: T1, human OSTF1 tagged at the N-terminus with a V5-epitope tag (human)
Experiment: as above
Remark: another data set of the same source

Row | binding | Molecule
5 | binds | Apoptotic chromatin condensation inducer 1 (protein, UniProt Q9UKV3 1-1341) MWRRKHPRTSGGTRGVLSGNRGVEYGSGRGHLGTFEGRWRKLPKMPEAVGTDPSTSRKMAELEEVTLDGKPLQALRVTDLKAALEQRGLAKSGQKSALVKRLKGALMLENLQKHSTPHAAFQPNSQIGEEMSQNSFIKQYLEKQQELLRQRLEREAREAAELEEASAESEDEMIHPEGVASLLPPDFQSSLERPELELSRHSPRKSSSISEEKGDSDDEKPRKGERRSSRVRQARAAKLSEGSQPAEEEEDQETPSRNLRVRADRNLKTEEEEEEEEEEEEDDEEEEGDDEGQKSREAPILKEFKEEGEEIPRVKPEEMMDERPKTRSQEQEVLERGGRFTRSQEEARKSHLARQQQEKEMKTTSPLEEEEREIKSSQGLKEKSKSPSPPRLTEDRKKASLVALPEQTASEEETPPPLLTKEASSPPPHPQLHSEEEIEPMEGPAPAVLIQLSPPNTDADTRELLVSQHTVQLVGGLSPLSSPSDTKAESPAEKVPEESVLPLVQKSTLADYSAQKDLEPESDRSAQPLPLKIEELALAKGITEECLKQPSLEQKEGRRASHTLLPSHRLKQSADSSSSRSSSSSSSSSRSRSRSPDSSGSRSHSPLRSKQRDVAQARTHANPRGRPKMGSRSTSESRSRSRSRSRSASSNSRKSLSPGVSRDSSTSYTETKDPSSGQEVATPPVPQLQVCEPKERTSTSSSSVQARRLSQPESAEKHVTQRLQPERGSPKKCEAEEAEPPAATQPQTSETQTSHLPESERIHHTVEEKEEVTMDTSENRPENDVPEPPMPIADQVSNDDRPEGSVEDEEKKESSLPKSFKRKISVVSATKGVPAGNSDTEGGQPGRKRRWGASTATTQKKPSISITTESLKSLIPDIKPLAGQEAVVDLHADDSRISEDETERNGDDGTHDKGLKICRTVTQVVPAEGQENGQREEEEEEKEPEAEPPVPPQVSVEVALPPPAEHEVKKVTLGDTLTRRSISQQKSGVSITIDDPVRTAQVPSPPRGKISNIVHISNLVRPFTLGQLKELLGRTGTLVEEAFWIDKIKSHCFVTYSTVEEAVATRTALHGVKWPQSNPKFLCADYAEQDELDYHRGLLVDRPSETKTEEQGIPRPLHPPPPPPVQPPQHPRAEQREQERAVREQWAEREREMERRERTRSEREWDRDKVREGPRSRSRSRDRRRKERAKSKEKKSEKKEKAQEEPPAKLLDDLFRKTKAAPCIYWLPLTDSQIVQKEAERAERAKEREKRRKEQEEEEQKEREKEAERERNRQLEREKRREHSRERDRERERERERDRGDRDRDRERDRERGRERDRRDTKRHSRSRSRSTPVRDRGGRR
6 | binds | Deoxynucleotidyltransferase terminal interacting protein 2 (protein, UniProt Q5QJE6 1-756) MVVTRSARAKASIQAASAESSGQKSFAANGIQAHPESSTGSDARTTAESQTTGKQSLIPRTPKARKRKSRTTGSLPKGTEPSTDGETSEAESNYSVSEHHDTILRVTRRRQILIACSPVSSVRKKPKVTPTKESYTEEIVSEAESHVSGISRIVLPTEKTTGARRSKAKSLTDPSQESHTEAISDAETSSSDISFSGIATRRTRSMQRKLKAQTEKKDSKIVPGNEKQIVGTPVNSEDSDTRQTSHLQARSLSEINKPNFYNNDFDDDFSHRSSENILTVHEQANVESLKETKQNCKDLDEDANGITDEGKEINEKSSQLKNLSELQDTSLQQLVSQRHSTPQNKNAVSVHSNLNSEAVMKSLTQTFATVEVGRWNNNKKSPIKASDLTKFGDCGGSDDEEESTVISVSEDMNSEGNVDFECDTKLYTSAPNTSQGKDNSVLLVLSSDESQQSENSENEEDTLCFVENSGQRESLSGDTGSLSCDNALFVIDTTPGMSADKNFYLEEEDKASEVAIEEEKEEEEDEKSEEDSSDHDENEDEFSDEEDFLNSTKAKLLKLTSSSIDPGLSIKQLGGLYINFNADKLQSNKRTLTQIKEKKKNELLQKAVITPDFEKNHCVPPYSESKYQLQKKRRKERQKTAGDGWFGMKAPEMTNELKNDLKALKMRASMDPKRFYKKNDRDGFPKYFQIGTIVDNPADFYHSRIPKKQRKRTIVEELLADSEFRRYNRRKYSEIMAEKAANAAGKKFRKKKKFRN
7 | binds | SR-related CTD associated factor 11 (protein, UniProt Q99590 1-1463) MKKKTVCTLNMGDKKYEDMEGEENGDNTISTGLLYSEADRCPICLNCLLEKEVGFPESCNHVFCMTCILKWAETLASCPIDRKPFQAVFKFSALEGYVKVQVKKQLRETKDKKNENSFEKQVSCHENSKSCIRRKAIVREDLLSAKVCDLKWIHRNSLYSETGGKKNAAIKINKPQRSNWSTNQCFRNFFSNMFSSVSHSGESSFTYRAYCTEFIEASEISALIRQKRHELELSWFPDTLPGIGRIGFIPWNVETEVLPLISSVLPRTIFPTSTISFEHFGTSCKGYALAHTQEGEEKKQTSGTSNTRGSRRKPAMTTPTRRSTRNTRAETASQSQRSPISDNSGCDAPGNSNPSLSVPSSAESEKQTRQAPKRKSVRRGRKPPLLKKKLRSSVAAPEKSSSNDSVDEETAESDTSPVLEKEHQPDVDSSNICTVQTHVENQSANCLKSCNEQIEESEKHTANYDTEERVGSSSSESCAQDLPVLVGEEGEVKKLENTGIEANVLCLESEISENILEKGGDPLEKQDQISGLSQSEVKTDVCTVHLPNDFPTCLTSESKVYQPVSCPLSDLSENVESVVNEEKITESSLVEITEHKDFTLKTEELIESPKLESSEGEIIQTVDRQSVKSPEVQLLGHVETEDVEIIATCDTFGNEDFNNIQDSENNLLKNNLLNTKLEKSLEEKNESLTEHPRSTELPKTHIEQIQKHFSEDNNEMIPMECDSFCSDQNESEVEPSVNADLKQMNENSVTHCSENNMPSSDLADEKVETVSQPSESPKDTIDKTKKPRTRRSRFHSPSTTWSPNKDTPQEKKRPQSPSPRRETGKESRKSQSPSPKNESARGRKKSRSQSPKKDIARERRQSQSRSPKRDTTRESRRSESLSPRRETSRENKRSQPRVKDSSPGEKSRSQSRERESDRDGQRRERERRTRKWSRSRSHSRSPSRCRTKSKSSSFGRIDRDSYSPRWKGRWANDGWRCPRGNDRYRKNDPEKQNENTRKEKNDIHLDADDPNSADKHRNDCPNWITEKINSGPDPRTRNPEKLKESHWEENRNENSGNSWNKNFGSGWVSNRGRGRGNRGRGTYRSSFAYKDQNENRWQNRKPLSGNSNSSGSESFKFVEQQSYKRKSEQEFSFDTPADRSGWTSASSWAVRKTLPADVQNYYSRRGRNSSGPQSGWMKQEEETSGQDSSLKDQTNQQVDGSQLPINMMQPQMNVMQQQMNAQHQPMNIFPYPVGVHAPLMNIQRNPFNIHPQLPLHLHTGVPLMQVATPTSVSQGLPPPPPPPPPSQQVNYIASQPDGKQLQGIPSSSHVSNNMSTPVLPAPTAAPGNTGMVQGPSSGNTSSSSHSKASNAAVKLAESKVSVAVEASADSSKTDKKLQIQEKAAQEVKLAIKPFYQNKDITKEEYKEIVRKAVDKVCHSKSGEVNSTKVANLVKAYVDKYKYSRKGSQKKTLEEPVSTEKNIG
8 | binds | Smad nuclear interacting protein 1 (protein, UniProt Q8TAD8 1-396) MKAVKSERERGSRRRHRDGDVVLPAGVVVKQERLSPEVAPPAHRRPDHSGGSPSPPTSEPARSGHRGNRARGVSRSPPKKKNKASGRRSKSPRSKRNRSPHHSTVKVKQEREDHPRRGREDRQHREPSEQEHRRARNSDRDRHRGHSHQRRTSNERPGSGQGQGRDRDTQNLQAQEEEREFYNARRREHRQRNDVGGGGSESQELVPRPGGNNKEKEVPAKEKPSFELSGALLEDTNTFRGVVIKYSEPPEARIPKKRWRLYPFKNDEVLPVMYIHRQSAYLLGRHRRIADIPIDHPSCSKQHAVFQYRLVEYTRADGTVGRRVKPYIIDLGSGNGTFLNNKRIEPQRYYELKEKDVLKFGFSSREYVLLHESSDTSEIDRKDDEDEEEEEEVSDS
